From the supplement of paper PMC11006884
Most of the targets with a hit are listed elsewhere, so they are rarer here than in the full data. Single values of this set are uncertain. Only a part is listed here, and it is no random draw.

Amino acid sequences for entries named in this document (tags omitted). A change or cut given only in a name is not applied to a line headed by its entry.
UniProt Q93008, whole entry, looked up: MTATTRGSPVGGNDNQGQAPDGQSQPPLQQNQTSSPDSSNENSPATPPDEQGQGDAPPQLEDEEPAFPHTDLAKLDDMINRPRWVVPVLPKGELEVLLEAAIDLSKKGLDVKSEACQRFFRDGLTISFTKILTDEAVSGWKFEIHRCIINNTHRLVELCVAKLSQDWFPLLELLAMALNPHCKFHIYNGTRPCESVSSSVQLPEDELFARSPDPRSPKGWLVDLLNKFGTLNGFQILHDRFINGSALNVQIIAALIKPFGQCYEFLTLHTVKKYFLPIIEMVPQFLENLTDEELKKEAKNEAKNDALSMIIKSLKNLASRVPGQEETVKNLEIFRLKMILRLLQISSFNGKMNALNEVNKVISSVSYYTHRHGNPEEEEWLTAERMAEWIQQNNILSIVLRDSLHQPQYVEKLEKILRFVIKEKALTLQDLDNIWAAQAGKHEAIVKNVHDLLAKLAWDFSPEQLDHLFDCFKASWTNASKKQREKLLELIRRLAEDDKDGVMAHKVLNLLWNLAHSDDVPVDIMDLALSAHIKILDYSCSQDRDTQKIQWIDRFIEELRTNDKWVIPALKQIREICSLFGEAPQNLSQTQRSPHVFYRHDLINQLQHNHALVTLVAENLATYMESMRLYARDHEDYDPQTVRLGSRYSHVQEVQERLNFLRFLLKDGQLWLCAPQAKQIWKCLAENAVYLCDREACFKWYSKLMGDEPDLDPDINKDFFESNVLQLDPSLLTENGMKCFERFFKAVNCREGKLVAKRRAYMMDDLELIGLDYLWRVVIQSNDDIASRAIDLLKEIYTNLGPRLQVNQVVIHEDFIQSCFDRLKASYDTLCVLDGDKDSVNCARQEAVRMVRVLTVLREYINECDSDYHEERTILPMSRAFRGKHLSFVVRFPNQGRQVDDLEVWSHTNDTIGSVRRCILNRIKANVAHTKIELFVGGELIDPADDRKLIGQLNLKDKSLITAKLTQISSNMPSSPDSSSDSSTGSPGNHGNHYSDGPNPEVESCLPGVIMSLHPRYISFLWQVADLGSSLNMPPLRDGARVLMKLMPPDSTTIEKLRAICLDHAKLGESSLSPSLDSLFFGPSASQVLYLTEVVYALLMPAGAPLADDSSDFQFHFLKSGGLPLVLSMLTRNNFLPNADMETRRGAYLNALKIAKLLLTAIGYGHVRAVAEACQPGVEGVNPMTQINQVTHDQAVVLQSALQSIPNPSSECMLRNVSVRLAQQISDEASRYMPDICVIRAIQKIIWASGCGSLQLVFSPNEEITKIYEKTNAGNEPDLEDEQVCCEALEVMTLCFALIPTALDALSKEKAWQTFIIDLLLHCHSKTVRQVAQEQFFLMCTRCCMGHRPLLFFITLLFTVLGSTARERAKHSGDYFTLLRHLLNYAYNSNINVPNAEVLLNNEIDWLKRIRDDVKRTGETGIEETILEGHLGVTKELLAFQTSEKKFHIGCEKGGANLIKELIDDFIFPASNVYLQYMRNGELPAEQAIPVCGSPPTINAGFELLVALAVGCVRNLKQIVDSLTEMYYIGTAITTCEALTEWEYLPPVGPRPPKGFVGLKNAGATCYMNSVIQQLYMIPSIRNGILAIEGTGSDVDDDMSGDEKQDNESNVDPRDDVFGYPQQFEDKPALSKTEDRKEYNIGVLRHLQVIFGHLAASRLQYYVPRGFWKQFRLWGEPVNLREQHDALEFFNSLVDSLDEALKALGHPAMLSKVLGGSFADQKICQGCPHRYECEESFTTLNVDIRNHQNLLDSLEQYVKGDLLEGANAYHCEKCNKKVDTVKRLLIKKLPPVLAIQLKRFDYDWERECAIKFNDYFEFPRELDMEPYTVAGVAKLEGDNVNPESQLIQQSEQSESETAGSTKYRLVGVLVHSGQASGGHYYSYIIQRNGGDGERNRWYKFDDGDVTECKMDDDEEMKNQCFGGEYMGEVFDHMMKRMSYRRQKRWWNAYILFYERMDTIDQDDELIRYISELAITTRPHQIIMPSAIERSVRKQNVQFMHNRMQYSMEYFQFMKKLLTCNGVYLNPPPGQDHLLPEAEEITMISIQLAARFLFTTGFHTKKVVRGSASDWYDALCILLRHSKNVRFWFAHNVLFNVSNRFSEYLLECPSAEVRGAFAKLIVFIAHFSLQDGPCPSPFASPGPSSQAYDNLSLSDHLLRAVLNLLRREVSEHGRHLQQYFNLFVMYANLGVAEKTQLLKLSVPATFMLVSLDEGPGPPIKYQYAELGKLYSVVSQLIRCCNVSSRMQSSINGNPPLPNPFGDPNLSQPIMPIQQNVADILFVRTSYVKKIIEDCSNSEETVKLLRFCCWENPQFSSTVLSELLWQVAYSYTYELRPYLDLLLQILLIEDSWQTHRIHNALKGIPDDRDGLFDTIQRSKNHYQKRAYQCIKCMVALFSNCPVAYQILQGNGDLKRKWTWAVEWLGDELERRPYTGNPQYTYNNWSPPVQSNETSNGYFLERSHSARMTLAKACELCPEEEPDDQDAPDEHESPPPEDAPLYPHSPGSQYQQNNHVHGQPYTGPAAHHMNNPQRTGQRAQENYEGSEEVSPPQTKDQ
UniProt Q96BR5: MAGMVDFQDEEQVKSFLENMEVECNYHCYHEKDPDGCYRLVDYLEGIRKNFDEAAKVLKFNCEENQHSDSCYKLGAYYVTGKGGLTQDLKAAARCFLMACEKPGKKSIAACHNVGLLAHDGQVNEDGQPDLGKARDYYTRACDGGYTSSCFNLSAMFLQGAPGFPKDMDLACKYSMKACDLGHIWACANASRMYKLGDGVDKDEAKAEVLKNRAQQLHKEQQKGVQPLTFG
UniProt Q969G3, whole entry: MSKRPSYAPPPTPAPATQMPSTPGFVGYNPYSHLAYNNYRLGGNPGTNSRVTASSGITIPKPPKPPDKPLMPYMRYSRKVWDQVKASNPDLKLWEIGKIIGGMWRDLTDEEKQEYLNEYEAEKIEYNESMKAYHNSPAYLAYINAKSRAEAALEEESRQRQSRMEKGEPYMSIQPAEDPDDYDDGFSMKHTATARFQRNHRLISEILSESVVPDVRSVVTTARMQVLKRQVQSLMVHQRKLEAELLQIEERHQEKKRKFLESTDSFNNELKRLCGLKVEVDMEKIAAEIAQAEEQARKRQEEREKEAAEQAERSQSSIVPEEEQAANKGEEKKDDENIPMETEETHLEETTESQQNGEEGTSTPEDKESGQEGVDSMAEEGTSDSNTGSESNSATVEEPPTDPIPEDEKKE
UniProt Q969Z0: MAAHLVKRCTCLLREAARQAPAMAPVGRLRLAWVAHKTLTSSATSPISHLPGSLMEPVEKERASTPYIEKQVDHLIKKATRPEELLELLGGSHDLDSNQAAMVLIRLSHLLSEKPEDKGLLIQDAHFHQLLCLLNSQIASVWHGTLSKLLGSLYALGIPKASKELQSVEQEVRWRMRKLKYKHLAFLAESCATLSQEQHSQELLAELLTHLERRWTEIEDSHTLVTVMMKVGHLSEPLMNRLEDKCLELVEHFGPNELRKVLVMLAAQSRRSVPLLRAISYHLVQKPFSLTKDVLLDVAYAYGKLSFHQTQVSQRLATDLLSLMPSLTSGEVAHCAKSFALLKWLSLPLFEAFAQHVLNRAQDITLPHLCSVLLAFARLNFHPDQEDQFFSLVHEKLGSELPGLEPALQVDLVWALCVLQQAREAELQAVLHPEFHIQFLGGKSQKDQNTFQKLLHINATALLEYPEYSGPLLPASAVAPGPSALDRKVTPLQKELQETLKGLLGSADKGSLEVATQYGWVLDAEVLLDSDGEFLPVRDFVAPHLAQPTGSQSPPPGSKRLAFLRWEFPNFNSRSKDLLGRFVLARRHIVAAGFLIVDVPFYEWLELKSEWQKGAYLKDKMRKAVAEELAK
UniProt Q96D46: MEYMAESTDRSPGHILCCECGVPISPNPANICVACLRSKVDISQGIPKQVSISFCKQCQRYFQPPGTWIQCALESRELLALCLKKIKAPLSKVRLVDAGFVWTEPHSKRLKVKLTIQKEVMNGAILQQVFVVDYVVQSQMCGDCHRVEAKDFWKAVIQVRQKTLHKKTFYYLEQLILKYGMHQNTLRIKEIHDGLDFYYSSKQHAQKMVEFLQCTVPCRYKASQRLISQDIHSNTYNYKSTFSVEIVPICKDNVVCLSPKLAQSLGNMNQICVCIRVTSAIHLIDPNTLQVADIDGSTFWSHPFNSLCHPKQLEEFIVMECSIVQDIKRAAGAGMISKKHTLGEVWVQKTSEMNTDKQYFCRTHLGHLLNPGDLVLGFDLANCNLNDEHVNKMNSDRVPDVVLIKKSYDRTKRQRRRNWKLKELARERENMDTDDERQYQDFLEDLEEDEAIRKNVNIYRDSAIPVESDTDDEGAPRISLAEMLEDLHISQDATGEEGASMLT
UniProt Q96FK6: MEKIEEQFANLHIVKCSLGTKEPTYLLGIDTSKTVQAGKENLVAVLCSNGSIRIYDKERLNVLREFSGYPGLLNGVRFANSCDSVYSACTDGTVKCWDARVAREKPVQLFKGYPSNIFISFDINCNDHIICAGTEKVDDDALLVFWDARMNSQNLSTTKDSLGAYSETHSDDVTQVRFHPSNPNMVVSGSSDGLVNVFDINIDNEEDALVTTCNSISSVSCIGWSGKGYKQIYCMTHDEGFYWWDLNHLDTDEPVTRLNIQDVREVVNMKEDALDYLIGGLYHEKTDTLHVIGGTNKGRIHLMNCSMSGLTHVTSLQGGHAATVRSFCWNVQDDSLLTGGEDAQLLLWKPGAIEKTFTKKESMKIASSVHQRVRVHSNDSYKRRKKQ
UniProt Q92547, whole entry: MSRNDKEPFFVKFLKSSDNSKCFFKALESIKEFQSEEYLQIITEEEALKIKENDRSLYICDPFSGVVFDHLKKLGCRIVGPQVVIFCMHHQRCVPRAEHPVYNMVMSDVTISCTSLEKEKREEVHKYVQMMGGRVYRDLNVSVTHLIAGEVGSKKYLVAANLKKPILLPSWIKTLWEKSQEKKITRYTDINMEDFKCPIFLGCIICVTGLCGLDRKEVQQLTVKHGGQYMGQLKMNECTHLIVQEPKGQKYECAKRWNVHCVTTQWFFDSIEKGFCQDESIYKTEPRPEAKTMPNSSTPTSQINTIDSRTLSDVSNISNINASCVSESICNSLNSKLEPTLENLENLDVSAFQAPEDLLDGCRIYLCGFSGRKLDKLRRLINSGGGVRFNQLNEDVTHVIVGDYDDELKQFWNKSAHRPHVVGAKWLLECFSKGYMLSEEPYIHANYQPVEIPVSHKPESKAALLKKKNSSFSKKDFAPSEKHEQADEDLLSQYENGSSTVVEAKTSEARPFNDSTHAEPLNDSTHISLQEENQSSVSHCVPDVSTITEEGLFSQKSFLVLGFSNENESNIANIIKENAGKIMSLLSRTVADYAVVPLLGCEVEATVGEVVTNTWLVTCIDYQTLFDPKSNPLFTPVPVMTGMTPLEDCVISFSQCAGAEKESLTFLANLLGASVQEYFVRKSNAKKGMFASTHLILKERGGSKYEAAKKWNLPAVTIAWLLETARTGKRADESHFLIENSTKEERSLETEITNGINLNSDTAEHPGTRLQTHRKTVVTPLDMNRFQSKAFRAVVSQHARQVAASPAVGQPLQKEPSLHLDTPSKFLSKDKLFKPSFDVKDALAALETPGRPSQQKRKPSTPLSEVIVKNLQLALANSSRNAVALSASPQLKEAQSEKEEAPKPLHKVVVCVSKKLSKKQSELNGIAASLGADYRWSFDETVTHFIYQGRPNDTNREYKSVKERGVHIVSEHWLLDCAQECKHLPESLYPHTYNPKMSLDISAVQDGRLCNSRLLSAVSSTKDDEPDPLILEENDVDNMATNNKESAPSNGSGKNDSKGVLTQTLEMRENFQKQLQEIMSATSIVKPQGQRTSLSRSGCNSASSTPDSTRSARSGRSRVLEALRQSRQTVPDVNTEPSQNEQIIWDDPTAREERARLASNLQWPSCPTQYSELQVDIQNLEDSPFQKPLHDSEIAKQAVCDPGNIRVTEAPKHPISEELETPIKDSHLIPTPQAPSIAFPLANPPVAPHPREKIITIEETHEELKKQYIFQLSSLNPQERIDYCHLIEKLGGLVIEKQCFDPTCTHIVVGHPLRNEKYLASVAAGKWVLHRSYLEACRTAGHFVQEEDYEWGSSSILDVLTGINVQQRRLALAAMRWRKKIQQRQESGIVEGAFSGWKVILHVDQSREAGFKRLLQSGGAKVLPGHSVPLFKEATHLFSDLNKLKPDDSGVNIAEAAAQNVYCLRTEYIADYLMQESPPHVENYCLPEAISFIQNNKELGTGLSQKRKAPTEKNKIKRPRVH
UniProt Q92688: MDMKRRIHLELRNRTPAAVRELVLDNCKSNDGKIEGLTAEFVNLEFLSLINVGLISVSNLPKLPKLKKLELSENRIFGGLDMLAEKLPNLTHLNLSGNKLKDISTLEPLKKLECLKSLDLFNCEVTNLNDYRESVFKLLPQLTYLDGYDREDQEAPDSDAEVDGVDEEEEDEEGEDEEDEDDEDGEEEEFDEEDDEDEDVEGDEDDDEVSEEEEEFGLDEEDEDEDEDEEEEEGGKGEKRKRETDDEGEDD

Each target was assayed with COC(=O)/C=C/c1ccccc1 [methyl cinnamate] (assay: log2 ratio of iodoacetamide-alkyne labeling of the cysteine site, DMSO over compound (competition); higher = stronger covalent engagement of the cysteine by the compound, active = 1 or more). Conditions: 500 µM; treatment time 1 h; system: HEK293T cell lysate.
Method in brief: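 HEK293T lysate (2 mg/mL) was treated with DMSO or electrophile (500 µM, 1 h, ambient temperature), then iodoacetamide alkyne (1 h), clicked to sCIP-TMT reagents, pooled, trypsin-digested overnight at 37 °C, streptavidin-enriched and acid-eluted. Peptides were run on Orbitrap Eclipse LC-MS/MS with FAIMS and quantified in FragPipe. The log2 competition ratio per cysteine is mean control-channel over mean compound-channel reporter intensity. Duplicate channels and three replicates were used, and cysteines quantified in only one replicate were excluded.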

Target	log2 ratio of iodoacetamide-alkyne labeling
UniProt Q92841_C447	inactive: -0.0626
USP9X C1566 (UniProt Q93008)	inactive: 0.146
TMEM131 C1214 (UniProt Q92545)	inactive: -0.154
EDC3 C477 (UniProt Q96F86)	inactive: 0.155
UniProt Q92616_C2015	inactive: 0.121
UBE2F C116 (UniProt Q969M7)	inactive: -0.0715
UniProt Q96BR5_C24	inactive: 0.138
UniProt Q92599_C80	inactive: -0.111
DHX38 C20 (UniProt Q92620)	inactive: 0.345
SMARCE1 C274 (UniProt Q969G3)	inactive: 0.0768
TBRG4 C335 (UniProt Q969Z0)	inactive: 0.288
UniProt Q96ES7_C243	inactive: -0.317
UniProt Q96EY4_C162	inactive: 0.258
POM121 C461 (UniProt Q96HA1)	inactive: 0.0997
NMD3 C214 (UniProt Q96D46)	inactive: 0.0156
NUP205 C1662 (UniProt Q92621)	inactive: 0.035
TSR2 C17 (UniProt Q969E8)	inactive: 0.0903
WDR89 C82 (UniProt Q96FK6)	inactive: 0.479
TOPBP1 C1166 (UniProt Q92547)	inactive: -0.0356

Target	log2 ratio of iodoacetamide-alkyne labeling
USP9X C1808 (UniProt Q93008)	inactive: -0.37
UniProt Q92888_C892	inactive: -0.433
ANP32B C27 (UniProt Q92688)	inactive: 0.218
FUBP1 C148 (UniProt Q96AE4)	inactive: 0.0915
RABGGTA C354 (UniProt Q92696)	inactive: -0.171
UniProt Q96C57_C161	inactive: 0.571
UniProt Q96BD8_C142	inactive: 0.17
RPE C23 (UniProt Q96AT9)	inactive: -0.0035
AKAP1 C376 (UniProt Q92667)	inactive: 0.59
DDX27 C321 (UniProt Q96GQ7)	inactive: -0.364
GBF1 C1766 (UniProt Q92538)	inactive: 0.238
TBRG4 C370 (UniProt Q969Z0)	inactive: -0.202
SNF8 C72 (UniProt Q96H20)	inactive: 0.3
SMARCD1 C460 (UniProt Q96GM5)	inactive: -0.107
RREB1 C648 (UniProt Q92766)	inactive: 0.25
GCDH C176 (UniProt Q92947)	inactive: 0.0971
UniProt Q92841_C247	inactive: -0.0864
MRPL38 C143 (UniProt Q96DV4)	inactive: 0.131

Three neighbouring records out of the list so far:
Target	log2 ratio of iodoacetamide-alkyne labeling
DHX38 C20 (UniProt Q92620)	inactive: 0.345
SMARCE1 C274 (UniProt Q969G3)	inactive: 0.0768
TBRG4 C335 (UniProt Q969Z0)	inactive: 0.288
